{"source": "PubChem BioAssay AID1259425 (University of Nebraska Medical Center, 2018)", "purpose": "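Find knockdowns that reproduce the gene expression pattern seen when KSR1 is lost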 (primary screen)", "cells": "HCT116 human colon cancer cells", "reagent": "siRNA pool against human genes, 50 nM siRNA", "read-out": "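mRNA of six signature genes measured together by branched-DNA assay after 50 nM siRNA pool, blank removed, divided by geometric mean of two housekeeping genes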", "direction": "BNIP3L mRNA: higher = more BNIP3L transcript after knockdown", "note": "Shown is a random part of about 14,000 reagents tested. Not all columns of the deposit are shown. Reagent sequences are not shown. The record does not give: the time to read-out."}
{"Target gene": "CHP2 (calcineurin like EF-hand protein 2)", "BNIP3L mRNA, set 1": 0.108}
{"Target gene": "DAZAP2 (DAZ associated protein 2)", "BNIP3L mRNA, set 1": 0.108}
{"Target gene": "BHMT2 (betaine--homocysteine S-methyltransferase 2)", "BNIP3L mRNA, set 1": 0.0751}
{"Target gene": "CCS (copper chaperone for superoxide dismutase)", "BNIP3L mRNA, set 1": 0.0767}
{"Target gene": "PLCB1 (phospholipase C beta 1)", "BNIP3L mRNA, set 1": 0.0864}
{"Target gene": "HNF4A (hepatocyte nuclear factor 4 alpha)", "BNIP3L mRNA, set 1": 0.124}
{"Target gene": "SPATA7 (spermatogenesis associated 7)", "BNIP3L mRNA, set 1": 0.128}

The list goes on, starting with the last 2 of the part before.
{"Target gene": "HNF4A (hepatocyte nuclear factor 4 alpha)", "BNIP3L mRNA, set 1": 0.124}
{"Target gene": "SPATA7 (spermatogenesis associated 7)", "BNIP3L mRNA, set 1": 0.128}
{"Target gene": "B3GALT4 (beta-1,3-galactosyltransferase 4)", "BNIP3L mRNA, set 1": 0.0942}
{"Target gene": "TLR8 (toll like receptor 8)", "BNIP3L mRNA, set 1": 0.0841}
{"Target gene": "TRPM8", "BNIP3L mRNA, set 1": 0.0694}
{"Target gene": "TLR5 (toll like receptor 5)", "BNIP3L mRNA, set 1": 0.0686}
{"Target gene": "AFF4 (ALF transcription elongation factor 4)", "BNIP3L mRNA, set 1": 0.15}
